The text below walks through data of PMC5809584, “Plastic roles of phenylalanine and tyrosine residues of TLS/FUS in complex formation with the G-quadruplexes of telomeric DNA and TERRA”.

The exact form of at least one protein or probe is not confirmed. At least one verdict was read from the data and is not stated in words by the source. Protein sequences can lack the tags named with them.

For the data set, the target named is T1, RGG3 of TLS/FUS (UniProt P35637).
T1 sequence (looked up, limits assumed): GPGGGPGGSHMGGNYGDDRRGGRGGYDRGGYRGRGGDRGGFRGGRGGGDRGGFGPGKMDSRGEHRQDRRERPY
As to the kind of experiment: fluorescence anisotropy. The settings on record: 450 nM RNA, 1:0 to 1:3; FA: 20 C (nucleic acids annealed in 20 mM K-phosphate pH 6.2, 50 mM KCl); recombinant protein; label: 5' FITC.

Consider UAGGGUUAGGGU [FITC-TERRA12], for which the binding result is “binds”.
